No constants are given. Whether binding was seen depends on the method and setting. Binding seen in cells or lysates may run through a third protein. Some entries that bind do so weakly or less than the wild type. Where a sequence is shown, tags or fusion partners need not be part of it.
T1: GST-IE1 (human cytomegalovirus (Towne cDNA)) (UniProt P03169)
T1 sequence: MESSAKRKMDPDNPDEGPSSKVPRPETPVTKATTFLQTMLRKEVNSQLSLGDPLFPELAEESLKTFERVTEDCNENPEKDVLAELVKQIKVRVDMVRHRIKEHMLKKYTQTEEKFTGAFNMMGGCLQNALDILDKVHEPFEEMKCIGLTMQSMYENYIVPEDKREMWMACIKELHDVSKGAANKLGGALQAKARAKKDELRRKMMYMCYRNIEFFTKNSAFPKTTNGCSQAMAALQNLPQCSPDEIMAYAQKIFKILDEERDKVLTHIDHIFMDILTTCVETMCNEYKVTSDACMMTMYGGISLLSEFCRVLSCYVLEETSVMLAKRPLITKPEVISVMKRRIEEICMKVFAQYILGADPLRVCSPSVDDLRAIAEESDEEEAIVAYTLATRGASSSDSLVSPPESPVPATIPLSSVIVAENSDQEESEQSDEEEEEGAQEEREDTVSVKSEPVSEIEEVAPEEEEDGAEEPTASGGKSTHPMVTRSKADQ

By UniProt entry, the sequences of proteins in these tests, tags left out.
UniProt O75925: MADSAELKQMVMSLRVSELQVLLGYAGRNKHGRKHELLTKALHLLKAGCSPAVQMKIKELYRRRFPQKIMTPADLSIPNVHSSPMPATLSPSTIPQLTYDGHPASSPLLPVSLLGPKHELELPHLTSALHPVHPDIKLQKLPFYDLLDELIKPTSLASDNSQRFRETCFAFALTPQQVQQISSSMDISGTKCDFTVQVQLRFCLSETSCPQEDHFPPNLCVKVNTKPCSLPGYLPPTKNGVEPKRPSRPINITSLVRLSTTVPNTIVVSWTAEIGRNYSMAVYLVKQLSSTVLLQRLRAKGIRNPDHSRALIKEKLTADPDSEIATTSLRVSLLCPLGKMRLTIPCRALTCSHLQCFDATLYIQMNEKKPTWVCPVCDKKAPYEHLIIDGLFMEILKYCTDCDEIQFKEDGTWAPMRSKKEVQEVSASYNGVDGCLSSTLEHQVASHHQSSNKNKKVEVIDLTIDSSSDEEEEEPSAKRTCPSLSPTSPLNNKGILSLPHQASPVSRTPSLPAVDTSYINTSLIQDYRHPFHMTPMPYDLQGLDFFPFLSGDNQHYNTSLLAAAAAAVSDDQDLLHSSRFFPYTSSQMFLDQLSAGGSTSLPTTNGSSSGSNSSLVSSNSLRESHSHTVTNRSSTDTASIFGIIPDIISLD
UniProt P16794: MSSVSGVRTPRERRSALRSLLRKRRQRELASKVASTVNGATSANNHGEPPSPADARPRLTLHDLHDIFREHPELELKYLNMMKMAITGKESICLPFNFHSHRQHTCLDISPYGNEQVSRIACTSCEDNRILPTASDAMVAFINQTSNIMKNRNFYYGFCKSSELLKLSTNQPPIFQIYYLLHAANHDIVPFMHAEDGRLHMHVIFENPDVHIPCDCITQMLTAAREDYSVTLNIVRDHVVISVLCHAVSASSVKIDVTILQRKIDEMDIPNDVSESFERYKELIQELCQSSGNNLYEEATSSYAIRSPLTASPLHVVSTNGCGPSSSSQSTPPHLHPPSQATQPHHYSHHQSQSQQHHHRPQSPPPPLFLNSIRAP

B1: HA-IE1 (protein, UniProt P03169 1-491)
chain: T1 sequence

Experiments:
myc-PIAS1 = myc-PIAS1 (UniProt O75925); assay: co-IP; 293T cells cotransfected with myc-PIAS1 and HA-IE1 or HA-UL53; lysates at 48 h in CoIP buffer (50 mM Tris-Cl pH 7.4, 50 mM NaF, 5 mM sodium phosphate, 0.1% Triton X-100); immunoprecipitated with anti-myc at 4°C, blotted with anti-HA
[1] = target: T1, GST-IE1 (human cytomegalovirus (Towne cDNA)); assay: pull-down; 5 µg GST-IE1 purified from bacteria immobilised on glutathione-Sepharose beads, incubated with in vitro-translated [35S]-methionine-labeled PIAS1; SDS-PAGE and autoradiography; only the target purified

Molecule	binding (myc-PIAS1)	binding [1]
HA-UL53 (from UniProt P16794 1-376)	no binding	
in vitro-translated [35S]-methionine-labeled PIAS1 (from UniProt O75925 1-651) (enzyme)		binds
B1	binds	
